These are yes or no findings as the source states them, for the method shown. In cells and extracts the contact can be indirect. Here binding means that the protein was enriched with, or labelled near, the bait; the list need not be complete.

By UniProt entry, the sequences of proteins in these tests, tags left out. Where a name states a change or a piece, a line headed by the entry shows the natural chain unless it says otherwise.
UniProt Q3UQU0: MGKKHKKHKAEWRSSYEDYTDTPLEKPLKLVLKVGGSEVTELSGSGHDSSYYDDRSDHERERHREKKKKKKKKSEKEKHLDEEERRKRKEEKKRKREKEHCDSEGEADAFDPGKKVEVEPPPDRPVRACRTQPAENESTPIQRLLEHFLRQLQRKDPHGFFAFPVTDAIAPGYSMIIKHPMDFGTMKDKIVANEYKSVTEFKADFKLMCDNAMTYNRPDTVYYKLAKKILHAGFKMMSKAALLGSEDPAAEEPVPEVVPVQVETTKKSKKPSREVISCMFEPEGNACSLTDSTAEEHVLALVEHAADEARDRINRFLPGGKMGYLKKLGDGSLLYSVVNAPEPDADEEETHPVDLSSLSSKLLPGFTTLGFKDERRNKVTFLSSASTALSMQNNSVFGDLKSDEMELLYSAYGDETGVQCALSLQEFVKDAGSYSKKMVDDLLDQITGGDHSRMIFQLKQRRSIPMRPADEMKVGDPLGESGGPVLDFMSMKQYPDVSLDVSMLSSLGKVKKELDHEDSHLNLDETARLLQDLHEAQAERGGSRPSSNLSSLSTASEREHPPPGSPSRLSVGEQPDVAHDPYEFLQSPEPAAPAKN
UniProt P25440: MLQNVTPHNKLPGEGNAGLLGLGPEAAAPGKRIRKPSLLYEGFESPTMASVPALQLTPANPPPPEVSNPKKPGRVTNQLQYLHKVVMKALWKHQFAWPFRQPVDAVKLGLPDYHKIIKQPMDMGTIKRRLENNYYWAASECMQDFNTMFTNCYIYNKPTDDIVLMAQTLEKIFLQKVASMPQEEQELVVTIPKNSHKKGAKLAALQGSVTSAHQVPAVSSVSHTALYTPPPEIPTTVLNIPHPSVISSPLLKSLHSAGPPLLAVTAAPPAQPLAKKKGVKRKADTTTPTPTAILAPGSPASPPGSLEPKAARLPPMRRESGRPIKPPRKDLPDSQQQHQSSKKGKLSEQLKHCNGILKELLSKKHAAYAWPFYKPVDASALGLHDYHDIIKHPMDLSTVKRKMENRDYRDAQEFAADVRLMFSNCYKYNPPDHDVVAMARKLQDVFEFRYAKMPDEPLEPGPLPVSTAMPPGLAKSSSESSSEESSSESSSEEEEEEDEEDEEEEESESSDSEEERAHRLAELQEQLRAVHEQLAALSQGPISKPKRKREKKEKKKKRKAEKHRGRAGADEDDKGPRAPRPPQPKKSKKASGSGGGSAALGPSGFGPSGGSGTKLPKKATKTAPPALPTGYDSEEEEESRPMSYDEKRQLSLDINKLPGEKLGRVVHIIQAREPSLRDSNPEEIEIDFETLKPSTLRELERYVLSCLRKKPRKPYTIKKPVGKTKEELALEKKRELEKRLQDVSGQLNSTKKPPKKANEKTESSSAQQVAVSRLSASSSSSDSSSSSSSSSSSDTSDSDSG
UniProt Q15059: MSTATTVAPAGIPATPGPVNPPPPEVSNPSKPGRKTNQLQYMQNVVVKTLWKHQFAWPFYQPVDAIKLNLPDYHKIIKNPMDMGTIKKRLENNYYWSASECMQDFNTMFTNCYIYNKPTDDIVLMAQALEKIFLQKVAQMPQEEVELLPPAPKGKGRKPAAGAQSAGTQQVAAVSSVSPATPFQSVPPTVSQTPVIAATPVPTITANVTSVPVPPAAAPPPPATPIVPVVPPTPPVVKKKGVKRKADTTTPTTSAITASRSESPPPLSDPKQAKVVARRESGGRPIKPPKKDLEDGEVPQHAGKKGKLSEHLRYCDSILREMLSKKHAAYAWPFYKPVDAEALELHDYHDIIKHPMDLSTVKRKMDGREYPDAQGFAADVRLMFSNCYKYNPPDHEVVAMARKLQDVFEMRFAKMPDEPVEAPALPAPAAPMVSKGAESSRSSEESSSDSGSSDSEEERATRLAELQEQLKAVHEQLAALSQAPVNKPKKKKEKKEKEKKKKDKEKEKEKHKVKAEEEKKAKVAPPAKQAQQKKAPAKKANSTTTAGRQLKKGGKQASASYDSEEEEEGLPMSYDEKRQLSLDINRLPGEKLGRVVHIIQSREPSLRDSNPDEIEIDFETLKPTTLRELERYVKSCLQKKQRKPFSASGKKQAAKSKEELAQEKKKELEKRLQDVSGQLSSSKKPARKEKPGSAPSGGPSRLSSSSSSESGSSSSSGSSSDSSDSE
UniProt Q9HCK8: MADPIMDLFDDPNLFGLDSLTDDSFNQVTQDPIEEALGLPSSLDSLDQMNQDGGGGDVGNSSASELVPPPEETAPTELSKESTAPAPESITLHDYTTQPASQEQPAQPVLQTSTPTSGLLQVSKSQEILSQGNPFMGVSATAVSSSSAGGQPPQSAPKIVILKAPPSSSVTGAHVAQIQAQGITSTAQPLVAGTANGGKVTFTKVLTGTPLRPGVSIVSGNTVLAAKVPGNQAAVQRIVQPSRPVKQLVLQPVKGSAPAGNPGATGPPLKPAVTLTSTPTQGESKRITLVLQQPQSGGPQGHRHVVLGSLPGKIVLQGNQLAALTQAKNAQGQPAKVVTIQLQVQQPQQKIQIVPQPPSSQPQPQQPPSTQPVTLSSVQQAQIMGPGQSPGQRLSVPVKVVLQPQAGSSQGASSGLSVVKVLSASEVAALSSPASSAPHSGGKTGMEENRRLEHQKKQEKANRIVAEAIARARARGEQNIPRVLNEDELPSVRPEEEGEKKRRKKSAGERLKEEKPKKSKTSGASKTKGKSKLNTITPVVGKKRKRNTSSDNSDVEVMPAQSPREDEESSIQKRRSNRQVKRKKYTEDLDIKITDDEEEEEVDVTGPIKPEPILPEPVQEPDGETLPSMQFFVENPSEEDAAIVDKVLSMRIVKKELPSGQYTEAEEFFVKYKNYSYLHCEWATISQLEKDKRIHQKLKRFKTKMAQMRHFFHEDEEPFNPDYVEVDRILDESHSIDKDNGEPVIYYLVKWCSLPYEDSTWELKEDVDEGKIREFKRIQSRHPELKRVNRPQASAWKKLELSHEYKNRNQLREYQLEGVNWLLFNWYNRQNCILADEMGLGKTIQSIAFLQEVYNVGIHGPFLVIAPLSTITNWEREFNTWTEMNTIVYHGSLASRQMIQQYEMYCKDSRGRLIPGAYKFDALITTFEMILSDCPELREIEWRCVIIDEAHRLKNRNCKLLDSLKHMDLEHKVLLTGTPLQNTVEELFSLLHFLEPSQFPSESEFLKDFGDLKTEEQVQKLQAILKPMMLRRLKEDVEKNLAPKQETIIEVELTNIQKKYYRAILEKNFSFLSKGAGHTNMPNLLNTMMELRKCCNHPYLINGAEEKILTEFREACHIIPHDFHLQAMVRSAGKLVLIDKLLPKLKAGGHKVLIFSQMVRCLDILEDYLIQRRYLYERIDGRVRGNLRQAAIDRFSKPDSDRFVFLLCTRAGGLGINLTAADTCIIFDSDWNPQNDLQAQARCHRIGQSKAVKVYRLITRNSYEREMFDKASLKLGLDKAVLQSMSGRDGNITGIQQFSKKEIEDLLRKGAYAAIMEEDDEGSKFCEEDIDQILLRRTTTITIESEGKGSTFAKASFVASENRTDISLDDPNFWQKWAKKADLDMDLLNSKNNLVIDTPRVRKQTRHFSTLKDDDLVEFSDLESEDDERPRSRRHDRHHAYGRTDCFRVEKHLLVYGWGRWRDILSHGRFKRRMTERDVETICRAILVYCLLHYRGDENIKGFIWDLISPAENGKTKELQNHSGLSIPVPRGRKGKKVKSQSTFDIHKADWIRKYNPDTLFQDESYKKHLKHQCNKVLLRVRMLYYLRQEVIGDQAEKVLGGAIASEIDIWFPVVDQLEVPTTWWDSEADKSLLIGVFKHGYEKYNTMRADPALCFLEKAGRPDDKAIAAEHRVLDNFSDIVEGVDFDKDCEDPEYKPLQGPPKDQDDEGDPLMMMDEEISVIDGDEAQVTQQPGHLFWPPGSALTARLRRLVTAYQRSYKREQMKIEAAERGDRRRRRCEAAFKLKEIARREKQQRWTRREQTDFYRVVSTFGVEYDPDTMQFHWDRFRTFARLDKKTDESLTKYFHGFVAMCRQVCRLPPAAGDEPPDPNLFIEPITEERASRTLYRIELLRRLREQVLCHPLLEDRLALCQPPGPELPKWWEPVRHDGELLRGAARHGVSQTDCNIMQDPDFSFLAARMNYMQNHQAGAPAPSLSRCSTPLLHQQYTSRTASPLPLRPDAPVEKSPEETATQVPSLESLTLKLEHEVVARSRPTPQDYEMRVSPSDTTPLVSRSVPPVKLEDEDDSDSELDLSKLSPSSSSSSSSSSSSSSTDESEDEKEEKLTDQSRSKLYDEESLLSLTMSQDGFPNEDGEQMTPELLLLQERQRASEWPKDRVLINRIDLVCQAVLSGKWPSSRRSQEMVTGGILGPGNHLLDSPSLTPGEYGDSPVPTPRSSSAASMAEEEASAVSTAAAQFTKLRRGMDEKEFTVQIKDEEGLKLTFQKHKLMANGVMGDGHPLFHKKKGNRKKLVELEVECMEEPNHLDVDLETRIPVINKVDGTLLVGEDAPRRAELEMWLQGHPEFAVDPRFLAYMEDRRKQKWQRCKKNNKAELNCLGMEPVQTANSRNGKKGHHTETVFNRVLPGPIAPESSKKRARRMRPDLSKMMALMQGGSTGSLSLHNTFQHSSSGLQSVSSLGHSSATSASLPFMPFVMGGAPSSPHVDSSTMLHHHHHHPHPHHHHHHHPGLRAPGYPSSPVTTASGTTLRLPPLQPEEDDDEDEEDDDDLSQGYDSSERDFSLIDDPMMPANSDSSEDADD
UniProt Q9BZ95: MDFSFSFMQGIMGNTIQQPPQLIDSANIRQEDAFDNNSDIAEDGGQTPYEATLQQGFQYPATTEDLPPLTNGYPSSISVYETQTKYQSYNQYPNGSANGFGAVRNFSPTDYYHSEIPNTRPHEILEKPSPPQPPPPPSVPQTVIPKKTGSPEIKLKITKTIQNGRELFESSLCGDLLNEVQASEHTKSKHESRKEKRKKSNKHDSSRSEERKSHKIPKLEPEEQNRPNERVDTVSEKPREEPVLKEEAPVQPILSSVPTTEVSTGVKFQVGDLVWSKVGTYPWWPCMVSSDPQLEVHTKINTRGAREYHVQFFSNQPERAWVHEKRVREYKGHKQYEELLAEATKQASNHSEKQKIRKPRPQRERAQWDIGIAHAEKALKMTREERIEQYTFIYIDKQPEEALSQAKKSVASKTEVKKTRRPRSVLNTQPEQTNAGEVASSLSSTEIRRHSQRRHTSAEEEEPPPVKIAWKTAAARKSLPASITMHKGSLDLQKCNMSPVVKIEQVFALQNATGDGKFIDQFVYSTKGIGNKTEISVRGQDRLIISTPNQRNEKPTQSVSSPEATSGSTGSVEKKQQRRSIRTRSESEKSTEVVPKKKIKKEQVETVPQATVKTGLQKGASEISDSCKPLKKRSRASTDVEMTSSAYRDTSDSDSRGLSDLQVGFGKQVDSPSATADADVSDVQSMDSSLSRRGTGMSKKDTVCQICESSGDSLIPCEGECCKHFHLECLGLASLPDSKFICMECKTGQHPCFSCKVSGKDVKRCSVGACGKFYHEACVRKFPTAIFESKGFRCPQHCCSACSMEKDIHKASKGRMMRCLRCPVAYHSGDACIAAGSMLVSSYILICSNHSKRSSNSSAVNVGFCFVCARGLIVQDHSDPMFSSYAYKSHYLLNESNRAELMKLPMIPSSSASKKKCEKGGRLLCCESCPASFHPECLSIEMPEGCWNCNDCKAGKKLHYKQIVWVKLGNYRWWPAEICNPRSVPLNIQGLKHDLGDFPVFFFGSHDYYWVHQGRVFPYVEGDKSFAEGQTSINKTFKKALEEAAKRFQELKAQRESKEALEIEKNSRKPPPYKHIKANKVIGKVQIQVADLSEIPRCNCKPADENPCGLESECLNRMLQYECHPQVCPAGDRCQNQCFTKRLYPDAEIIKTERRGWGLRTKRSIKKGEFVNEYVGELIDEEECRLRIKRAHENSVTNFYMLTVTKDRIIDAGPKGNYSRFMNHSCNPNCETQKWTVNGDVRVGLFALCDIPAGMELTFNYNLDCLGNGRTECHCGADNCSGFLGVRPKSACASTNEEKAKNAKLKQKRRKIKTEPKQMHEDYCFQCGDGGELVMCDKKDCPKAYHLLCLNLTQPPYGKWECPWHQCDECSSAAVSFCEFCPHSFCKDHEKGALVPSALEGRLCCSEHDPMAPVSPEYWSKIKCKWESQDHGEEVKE

Test [1] addresses 3xFLAG-BRD9 267-504 (not stated (UniProt entry of the human protein printed; a mouse Brd9 cDNA is listed)) (UniProt Q3UQU0). The test can be described thus: affinity purification with mass spectrometry; 3xFLAG-tagged BRD9 full length and deletion constructs expressed in HEK293 cells, anti-FLAG M2 beads, endogenous preys, SAINT FDR ≤ 1%.
For test [2], the target named is 3xFLAG-BRD9 1-100 (not stated (UniProt entry of the human protein printed; a mouse Brd9 cDNA is listed)) (UniProt Q3UQU0). Described as above.
Test [3] has as its target 3xFLAG-BRD9 full length (not stated (UniProt entry of the human protein printed; a mouse Brd9 cDNA is listed)) (UniProt Q3UQU0). The test is described as above.
For the next test, the target named is 3×FLAG-BRD2 (human) (UniProt P25440). The test can be described thus: affinity purification with mass spectrometry; 3×FLAG-BET baits in Flp-In T-REx HEK293, anti-FLAG M2 beads, chromatin-optimised lysis (100 mM KCl, sonication, benzonase); cells untreated or with 500 nM JQ1 for 10, 60 or 240 min; SAINT FDR ≤1%.
In the next test the target is 3×FLAG-BRD3 (human) (UniProt Q15059). The test is described as above.

For the substance “SMARCD1 (endogenous) (from UniProt Q96GM5 1-515)”, in test [1], the binding result is on record as “binds”. With “BRD2 (endogenous) (from UniProt P25440 1-801)”, the binding result in test [2] and in test [3] was “binds” in each case.

With CHD8 (from UniProt Q9HCK8 1-2581), the binding entry in the test with 3×FLAG-BRD2 (human) and with 3×FLAG-BRD3 (human) was “binds” in each case. Consider “BRD9 (endogenous) (from UniProt Q9H8M2 1-597)”, for which the binding result with 3×FLAG-BRD2 (human) was “binds”. Turning to “WHSC1L1 (endogenous) (from UniProt Q9BZ95 1-1437)”, the binding entry in the test with 3×FLAG-BRD2 (human) and with 3×FLAG-BRD3 (human) was “binds” throughout.

Turning to “SMARCC1 (endogenous) (from UniProt Q92922 1-1105)”, the binding entry in test [1] was “binds”.

Consider “WHSC1 (endogenous) (from UniProt O96028 1-1365)”, for which, in the test with 3×FLAG-BRD3 (human), the binding entry is given as “binds”.

These data come from article PMC6375729.
